The subject of one data set is biotinyl-Leu-oxazolone. In words: self-aminoacylation, catalytic enhancement (BLO) (fold over background); higher = more active; k-Seq, kA / k0A0; sequences stand for … in GGGAAUGGAUCCACAUCUACGAAUUC…UUCACUGCAGACUUGACGAAGCUG
In short, it runs like this:
(§1)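 Working in 50 μL HEPES/NaCl/KCl/MgCl2/CaCl2 buffer with 5% acetonitrile at pH 6.9–7.0, mutagenized RNA pools (0.43 μM; 21-nt variable region) were reacted with 2–1250 μM of each biotinyl-aminoacyl-oxazolone for 90 minutes at room temperature. Streptavidin capture followed, with quantification by triplicate qPCR and Illumina sequencing. Catalytic enhancement is reported as median kA over the uncatalyzed rate, the low-activity peak of a bimodal Gaussian fit to the data.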

For the next data set, the system named is biotinyl-Met-oxazolone. In words: self-aminoacylation, catalytic enhancement (BMO) (fold over background); higher = more active; k-Seq, kA / k0A0; sequences stand for … in GGGAAUGGAUCCACAUCUACGAAUUC…UUCACUGCAGACUUGACGAAGCUG
An outline of the steps:
as §1

A further data set deals with biotinyl-Ile-oxazolone. In words: self-aminoacylation, catalytic enhancement (BIO) (fold over background); higher = more active; k-Seq, kA / k0A0; sequences stand for … in GGGAAUGGAUCCACAUCUACGAAUUC…UUCACUGCAGACUUGACGAAGCUG
An outline of the steps:
as §1

A further data set has as its system biotinyl-Val-oxazolone. In words: self-aminoacylation, catalytic enhancement (BVO) (fold over background); higher = more active; k-Seq, kA / k0A0; sequences stand for … in GGGAAUGGAUCCACAUCUACGAAUUC…UUCACUGCAGACUUGACGAAGCUG
In short, it runs like this: as §1

Self-aminoacylation data for 38 sequences are collected here from the supplement of paper PMC9233669.

Variants at the background level are over-represented here.

For “CUGCUUCAAACAAUCGGGCUG [Fam1A.1 aminoacylation ribozyme variant]”, the self-aminoacylation with biotinyl-Leu-oxazolone stood at 3.18; with biotinyl-Met-oxazolone, 2.66; in the data set with biotinyl-Ile-oxazolone, 2.2; with biotinyl-Val-oxazolone, 2.33.

For the sequence “CCACACGUCAACCAAUCGGUC [Fam1B.1 aminoacylation ribozyme variant]”, the self-aminoacylation in the data set on biotinyl-Leu-oxazolone amounted to 1.17; in the data set on biotinyl-Met-oxazolone, 1.07; with biotinyl-Ile-oxazolone, 1.09; with biotinyl-Val-oxazolone, 1.47.

Take “AUGUUUGCUAAUAGUCGUAAG [Fam3.1 aminoacylation ribozyme variant]”: the self-aminoacylation in the data set on biotinyl-Leu-oxazolone turned out to be 0.831; in the data set on biotinyl-Met-oxazolone, 1.11; in the data set with biotinyl-Ile-oxazolone, 1.11; in the data set on biotinyl-Val-oxazolone it was 1.11.

As to “UUACUUCAAACAAUCAGUCUG [Fam1A.1 aminoacylation ribozyme variant]”, the self-aminoacylation with biotinyl-Leu-oxazolone stood at 1.45; in the data set on biotinyl-Met-oxazolone it was 1.35; in the data set with biotinyl-Ile-oxazolone, 1.43; in the data set on biotinyl-Val-oxazolone, 1.3.

Take “UCAAACUUCAAGCAAUCGGUC [Fam1B.1 aminoacylation ribozyme variant]”: the self-aminoacylation was 1.45 in the data set on biotinyl-Leu-oxazolone, 1.05 in the data set with biotinyl-Met-oxazolone, 1.17 with biotinyl-Ile-oxazolone and 1.19 in the data set with biotinyl-Val-oxazolone.

For “GUACUUCAAAUAAUCGGUCUG [Fam1A.1 aminoacylation ribozyme variant]”, the self-aminoacylation turned out to be 1.49 in the data set on biotinyl-Leu-oxazolone, 1.34 with biotinyl-Met-oxazolone, 1.54 in the data set with biotinyl-Ile-oxazolone and 1.23 with biotinyl-Val-oxazolone.

Turning to “GAGUUUCCUAAUAGUCGCAAG [Fam3.1 aminoacylation ribozyme variant]”, the self-aminoacylation in the data set on biotinyl-Leu-oxazolone was determined as 1.88; in the data set on biotinyl-Met-oxazolone, 1.85.

With “ACACAGUUCAAGCAAUCGGUC [Fam1B.1 aminoacylation ribozyme variant]”, the self-aminoacylation in the data set with biotinyl-Leu-oxazolone turned out to be 1.71; in the data set with biotinyl-Met-oxazolone, 1.74; with biotinyl-Ile-oxazolone, 1.8; with biotinyl-Val-oxazolone, 1.76.

As for “AAGCAUGCUAAUAGUCGCAAG [Fam3.1 aminoacylation ribozyme variant]”, the self-aminoacylation stood at 1.8 in the data set with biotinyl-Leu-oxazolone and 1.93 with biotinyl-Val-oxazolone.

For the sequence “CGUCACUUCAAGCAAUCGGUC [Fam1B.1 aminoacylation ribozyme variant]”, the self-aminoacylation with biotinyl-Leu-oxazolone was 1.25; in the data set with biotinyl-Met-oxazolone, 1.36; in the data set with biotinyl-Ile-oxazolone, 1.04; with biotinyl-Val-oxazolone it was 1.02.

As to “CCAAACUUCAACCAAUCGGUC [Fam1B.1 aminoacylation ribozyme variant]”, the self-aminoacylation with biotinyl-Leu-oxazolone was 1.69; in the data set with biotinyl-Met-oxazolone, 1.25; with biotinyl-Ile-oxazolone, 1.29; in the data set with biotinyl-Val-oxazolone, 1.17.

Take “AUUCACCUAGGUCAUUGGGUC [Fam2.2 aminoacylation ribozyme variant]”: the self-aminoacylation in the data set on biotinyl-Leu-oxazolone is 0.89; in the data set with biotinyl-Met-oxazolone it was 0.808; with biotinyl-Ile-oxazolone, 0.922; in the data set with biotinyl-Val-oxazolone it was 0.867.

For the sequence “CCACGCUUCAAGUAAUCGGUC [Fam1B.1 aminoacylation ribozyme variant]”, the self-aminoacylation was 1.29 with biotinyl-Leu-oxazolone, 1.03 in the data set on biotinyl-Met-oxazolone, 0.905 in the data set with biotinyl-Ile-oxazolone and 0.911 with biotinyl-Val-oxazolone.

On to “AAGACUGCUAAUAGUCGCAAG [Fam3.1 aminoacylation ribozyme variant]”, for which the values for the self-aminoacylation in the data set on biotinyl-Leu-oxazolone, in the data set on biotinyl-Ile-oxazolone and in the data set on biotinyl-Val-oxazolone were 1.12, 1.58 and 1.32, respectively.

In the case of “CUACUUCAAUCAAUCGGUCAG [Fam1A.1 aminoacylation ribozyme variant]”, the self-aminoacylation with biotinyl-Leu-oxazolone worked out at 0.885; in the data set on biotinyl-Met-oxazolone, 0.738; with biotinyl-Ile-oxazolone, 0.788; in the data set with biotinyl-Val-oxazolone, 0.83.

For the sequence “CUACUUGAGACAAUCGGUCUG [Fam1A.1 aminoacylation ribozyme variant]”, the self-aminoacylation stood at 0.962 in the data set with biotinyl-Leu-oxazolone, 0.94 with biotinyl-Met-oxazolone, 0.884 with biotinyl-Ile-oxazolone and 1.01 in the data set with biotinyl-Val-oxazolone.

Consider “CUACUUCAAAUAAUCGGUCUC [Fam1A.1 aminoacylation ribozyme variant]”, for which the self-aminoacylation in the data set with biotinyl-Leu-oxazolone was 0.747; with biotinyl-Met-oxazolone, 0.69; in the data set on biotinyl-Ile-oxazolone, 0.682; with biotinyl-Val-oxazolone, 0.838.

“CCCCACUUCAAUCAAUCGGUC [Fam1B.1 aminoacylation ribozyme variant]”: the self-aminoacylation in the data set with biotinyl-Met-oxazolone is 1.63; in the data set on biotinyl-Ile-oxazolone, 1.82; with biotinyl-Val-oxazolone it was 1.94.

For “AUCCACCUAGGUCAUAGGGUG [Fam2.2 aminoacylation ribozyme variant]”, the values for the self-aminoacylation in the data set with biotinyl-Met-oxazolone, in the data set with biotinyl-Ile-oxazolone and in the data set on biotinyl-Val-oxazolone were 1.66, 1.66 and 1.88, respectively.

On to “AAGUUUGCCAAUAGUCGCAAU [Fam3.1 aminoacylation ribozyme variant]”, for which the self-aminoacylation was 1.8 in the data set with biotinyl-Leu-oxazolone, 2 with biotinyl-Ile-oxazolone and 1.5 in the data set on biotinyl-Val-oxazolone.

Turning to “CUACUUCAAACAAUCUGGCUG [Fam1A.1 aminoacylation ribozyme variant]”, the self-aminoacylation in the data set on biotinyl-Met-oxazolone was 0.844; in the data set on biotinyl-Ile-oxazolone, 0.963; in the data set on biotinyl-Val-oxazolone it was 0.963.

“CCACCCUUCAAGCAAUCGGGC [Fam1B.1 aminoacylation ribozyme variant]”: the self-aminoacylation in the data set on biotinyl-Leu-oxazolone is 1.83; in the data set on biotinyl-Met-oxazolone, 1.56.

In the case of “ACGUUUGCUAAUAGUCGCAAA [Fam3.1 aminoacylation ribozyme variant]”, the results for the self-aminoacylation in the data set with biotinyl-Leu-oxazolone, in the data set with biotinyl-Met-oxazolone and in the data set on biotinyl-Val-oxazolone were 1.64, 1.54 and 1.53, respectively.

Regarding “AAGUUUGUUAAUAGUCGCAGG [Fam3.1 aminoacylation ribozyme variant]”, the values for the self-aminoacylation in the data set with biotinyl-Met-oxazolone, with biotinyl-Ile-oxazolone and with biotinyl-Val-oxazolone were 1.81, 1.75 and 1.55, respectively.

With “CCCCACGUCAAGCAAUCGGUC [Fam1B.1 aminoacylation ribozyme variant]”, the self-aminoacylation with biotinyl-Leu-oxazolone came to 1.33; with biotinyl-Met-oxazolone it was 1.39; with biotinyl-Ile-oxazolone it was 1.58.

Regarding “GUACUUCAAUCAAUCGGUCUG [Fam1A.1 aminoacylation ribozyme variant]”, the self-aminoacylation in the data set with biotinyl-Met-oxazolone came to 1.43; in the data set with biotinyl-Ile-oxazolone it was 1.7; with biotinyl-Val-oxazolone, 1.64.

As for “CCACUUCAAACAAUCGGUCUU [Fam1A.1 aminoacylation ribozyme variant]”, the results for the self-aminoacylation in the data set on biotinyl-Met-oxazolone, with biotinyl-Ile-oxazolone and in the data set on biotinyl-Val-oxazolone were 1.56, 1.5 and 1.69, respectively.

In the case of “AAGCGUGCUAAUAGUCGCAAG [Fam3.1 aminoacylation ribozyme variant]”, the self-aminoacylation in the data set on biotinyl-Leu-oxazolone was determined as 1.85; with biotinyl-Ile-oxazolone, 2.02; with biotinyl-Val-oxazolone, 2.05.

Regarding “AAGUGUGCUAAUAGUCGCCAG [Fam3.1 aminoacylation ribozyme variant]”, the self-aminoacylation came out at 1.86 in the data set on biotinyl-Met-oxazolone, 1.83 with biotinyl-Ile-oxazolone and 1.43 in the data set with biotinyl-Val-oxazolone.

On to “CUUCACCUAGGUCAUCGGCUG [Fam2.2 aminoacylation ribozyme variant]”, for which the self-aminoacylation with biotinyl-Leu-oxazolone was determined as 1.68; in the data set on biotinyl-Met-oxazolone it was 1.53; in the data set on biotinyl-Ile-oxazolone it was 1.53.

As for “AAGUUUGCUUAUAGUCGCCAG [Fam3.1 aminoacylation ribozyme variant]”, the self-aminoacylation was found to be 0.883 in the data set on biotinyl-Met-oxazolone, 1.08 in the data set on biotinyl-Ile-oxazolone and 0.955 in the data set with biotinyl-Val-oxazolone.

With “AAGUUUGCUAGUAGUCCCAAG [Fam3.1 aminoacylation ribozyme variant]”, the self-aminoacylation in the data set on biotinyl-Met-oxazolone turned out to be 0.75; with biotinyl-Ile-oxazolone, 1.01; in the data set on biotinyl-Val-oxazolone, 1.14.

“GUACUUCAAACAAUCGGUCGG [Fam1A.1 aminoacylation ribozyme variant]”: the self-aminoacylation with biotinyl-Met-oxazolone was 1.81; with biotinyl-Ile-oxazolone, 1.98; in the data set with biotinyl-Val-oxazolone it was 1.66.

“UUUCACCUAGUUCAUCGGGUG [Fam2.2 aminoacylation ribozyme variant]”: the self-aminoacylation with biotinyl-Met-oxazolone turned out to be 2.6; in the data set on biotinyl-Ile-oxazolone, 2.44; with biotinyl-Val-oxazolone, 3.09.

For the sequence “CAGUUUGCUAAUAGUCGCAUG [Fam3.1 aminoacylation ribozyme variant]”, the self-aminoacylation is 1.91 in the data set on biotinyl-Met-oxazolone, 1.84 with biotinyl-Ile-oxazolone and 1.61 in the data set on biotinyl-Val-oxazolone.

Turning to “AUUCACCUGGCUCAUCGGGUG [Fam2.2 aminoacylation ribozyme variant]”, the values for the self-aminoacylation with biotinyl-Met-oxazolone, in the data set with biotinyl-Ile-oxazolone and in the data set with biotinyl-Val-oxazolone were 1.79, 2.18 and 3.81, respectively.

With “AAGUCUGCUAAUAGUCGCAAG [Fam3.1 aminoacylation ribozyme variant]”, the self-aminoacylation amounted to 1.66 in the data set with biotinyl-Leu-oxazolone, 1.47 with biotinyl-Ile-oxazolone and 1.49 in the data set with biotinyl-Val-oxazolone.

With “CGACUUCAAGCAAUCGGUCUG [Fam1A.1 aminoacylation ribozyme variant]”, the self-aminoacylation in the data set with biotinyl-Met-oxazolone came out at 1.58; with biotinyl-Ile-oxazolone, 1.41; in the data set with biotinyl-Val-oxazolone, 1.56.
